PubChem BioAssay AID1508587 – Peter MacCallum Cancer Centre – 2020

- Assay: 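Follow-up of vemurafenib sensitisers scored by lactate made per cell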 (follow-up of hits)
- Cell system: human WM266.4 melanoma cells with a BRAF V600 mutation
- Knock-down reagent: single siRNA against human genes, 25 nM
- Time to read-out: 96 h
- Treatment: vemurafenib 300 nM (about IC25), given 48 h after transfection for 48 h
- Measured: 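Per-cell lactate from absorbance divided by DAPI nucleus counts, compared with and without vemurafenib, relative to non-targeting siRNA, mean of 2 replicates; nuclear counts also give cell number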
- Reading the numbers: lactate per cell, drug vs no drug: higher = less drug-induced drop in lactate per cell; lactate per cell with vemurafenib: higher = more lactate per cell under drug; lactate per cell without drug: higher = more lactate per cell without drug; cell growth with vemurafenib: higher = more cell growth over 48 h
- Call rule: 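a duplex is active when its lactate-per-cell ratio with versus without drug falls under 0.55, i.e. 2 SD below non-targeting; a gene is confirmed if 2 or more of 4 duplexes pass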
This is one part, drawn at random, of about 1,600 deposited reagents. Over the whole deposit, 623 (39%) are marked active. 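Calls are for each duplex; lactate ratios contain extreme outliers.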 Entries without a mark were called inactive. Further read-outs or replicates are left out here. No sequences are given here.

target gene | PubChem SID | lactate per cell, drug vs no drug | lactate per cell with vemurafenib | lactate per cell without drug | cell growth with vemurafenib
UBE2K (GeneID 3093) | SID135612940 | 0.53 (active) | 1.38 | 1.51 | 0.93
UBE2K (GeneID 3093) | SID135612941 | 0.6 | 2.12 | 2.1 | 0
UBE2K (GeneID 3093) | SID135612942 | 0.57 | 1.07 | 1.1 | 0.23
UBE2K (GeneID 3093) | SID135612943 | 0.54 (active) | 1.01 | 1.12 | 0.37
ZBTB38 (GeneID 253461) | SID135616895 | 0.57 | 1.38 | 157 | -0.04
ZBTB38 (GeneID 253461) | SID135616896 | 0.6 | 1.21 | 1.44 | 0.66
ZBTB38 (GeneID 253461) | SID135616897 | 0.88 | 1.54 | 1.23 | 0.65
ZBTB38 (GeneID 253461) | SID135616898 | 0.49 (active) | 2.57 | 3.58 | -0.03
NEUROD2 (GeneID 4761) | SID134244670 | 0.92 | 2 | 1.42 | 0.4
NEUROD2 (GeneID 4761) | SID134244671 | 0.64 | 1.25 | 1.29 | 0.63
NEUROD2 (GeneID 4761) | SID134244672 | 0.37 (active) | 1.27 | 2.27 | -0.17
NEUROD2 (GeneID 4761) | SID135612790 | 0.78 | 2.34 | 1.94 | 0.32
SLAMF8 (GeneID 56833) | SID134259533 | 0.5 (active) | 0.89 | 1.19 | 0.82
SLAMF8 (GeneID 56833) | SID134259534 | 0.57 | 1.02 | 1.19 | 0.22
SLAMF8 (GeneID 56833) | SID134259535 | 0.68 | 0.96 | 0.92 | 0.8
SLAMF8 (GeneID 56833) | SID134259536 | 0.46 (active) | 0.57 | 0.82 | 0.61
PPP3CC (GeneID 5533) | SID134248361 | 0.37 (active) | 0.48 | 0.82 | 0.55
PPP3CC (GeneID 5533) | SID134248362 | 0.59 | 0.71 | 0.75 | 0.1
PPP3CC (GeneID 5533) | SID134248363 | 0.5 (active) | 0.68 | 0.86 | 0.44
PPP3CC (GeneID 5533) | SID134248364 | 0.82 | 3.44 | 2.67 | -0.05
ARMCX5 (GeneID 64860) | SID134263321 | 0.23 (active) | 0.84 | 2.29 | 0.1
ARMCX5 (GeneID 64860) | SID134263322 | 0.48 (active) | 1.04 | 1.34 | 0.72
ARMCX5 (GeneID 64860) | SID134263323 | 0.4 (active) | 0.85 | 1.3 | 0.72
ARMCX5 (GeneID 64860) | SID134263324 | 0.62 | 1.22 | 1.26 | 0.37
TMED9 (GeneID 54732) | SID134241161 | 0.64 | 1.01 | 1.09 | 0.22
TMED9 (GeneID 54732) | SID134241162 | 0.43 (active) | 1.1 | 1.83 | 0.64
TMED9 (GeneID 54732) | SID134241163 | 0.58 | 1.54 | 1.79 | 0.1
TMED9 (GeneID 54732) | SID134241164 | 0.48 (active) | 1.29 | 1.85 | 0.29
SELENOF (GeneID 9403) | SID152147858 | 0.44 (active) | 1.13 | 1.64 | 0.13
SELENOF (GeneID 9403) | SID152151919 | 0.55 | 1.01 | 1.18 | 0.75
SELENOF (GeneID 9403) | SID152154698 | 0.56 | 1.47 | 1.65 | 0.26
SELENOF (GeneID 9403) | SID152155237 | 0.46 (active) | 0.98 | 1.31 | 0.15
CIRSR (GeneID 9541) | SID134270669 | 0.77 | 3.07 | 2.72 | 0.11
CIRSR (GeneID 9541) | SID134270670 | 0.9 | 8.7 | 7.11 | -0.09
CIRSR (GeneID 9541) | SID134270671 | 0.57 | 1.35 | 1.6 | 0.17
CIRSR (GeneID 9541) | SID134270672 | 0.6 | 0.92 | 1.04 | 0.88

Reprinted from above for reference:
target gene | PubChem SID | lactate per cell, drug vs no drug | lactate per cell with vemurafenib | lactate per cell without drug | cell growth with vemurafenib
ARMCX5 (GeneID 64860) | SID134263321 | 0.23 (active) | 0.84 | 2.29 | 0.1
ARMCX5 (GeneID 64860) | SID134263322 | 0.48 (active) | 1.04 | 1.34 | 0.72
